Laboratory results taken from US20250250330A1.
Results are given in words; binding and its absence hold for the method and conditions named. Some entries that bind do so weakly or less than the wild type.

Protein sequences, listed by entry. Tags and fused reporters are not part of them. Lines headed by an entry give the natural chain unless they say otherwise; changes in a name come on top. Chains listed by the source or under a name are the forms on record and can include a tag or linker. Residues count along the entry.
Recombinant human VEGF165 (Peprotech, Cat #100-20) (P15692, form named): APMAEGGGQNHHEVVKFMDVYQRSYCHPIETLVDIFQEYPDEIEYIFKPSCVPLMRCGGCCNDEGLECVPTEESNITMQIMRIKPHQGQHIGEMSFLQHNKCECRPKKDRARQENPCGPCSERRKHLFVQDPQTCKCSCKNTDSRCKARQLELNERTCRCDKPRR
UniProt O15123, residues 275-496: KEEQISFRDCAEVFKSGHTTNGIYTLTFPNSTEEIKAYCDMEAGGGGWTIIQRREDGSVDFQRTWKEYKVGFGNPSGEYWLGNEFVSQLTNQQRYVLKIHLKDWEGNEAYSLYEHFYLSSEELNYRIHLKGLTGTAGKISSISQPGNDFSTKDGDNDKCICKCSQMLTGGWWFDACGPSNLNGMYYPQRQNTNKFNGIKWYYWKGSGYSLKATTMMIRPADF

Legend:
[1] = molecular target: Recombinant human VEGF165 (Peprotech, Cat #100-20) (human) (UniProt P15692); assay: ELISA on rhVEGF165
[2] = molecular target: His-tagged recombinant human ANG-2 (AcroBiosystems, Cat #AN2-H52H4) (human) (UniProt O15123); assay: ELISA on rhANG-2

B1: RP-014_VEGF-A_Sab (Fab, V domains shown, not shown: a dimerising Fc or GST)
VH: QVQLVQSGAEVKKPGASVKVSCKASGYTFSIYTIHWVRQAPGQGLEWMGGINPYNGNTKYAQKFQGRVTMTRDTSISTAYMELSRLRSDDTAVYYCAKAPAVFWWTGLDYWGQGTLVTVSS
VL: QPVLHQPPAMSSALGTTIRLTCTLRNDHDIGVYSVYWYQQRPGHPPRFLLRYFSQSDKSQGPQVPPRFSGSKDVARNRGYLSISELQPEDEAMYYCAMGARSSVTHVFGSGTQLTVLS
[1]
  binding: binds

B2: RP-017_ANG-2_Sab (Fab, V domains shown, not shown: a dimerising Fc or GST)
VH: EVQLVESGGGLVKPGGSLRLSCAASGFTFSSYGMHWVRQAPGKGLEWVAGISADSGDKNYADSVKGRFTISRDNAKNSLYLQMNSLRAEDTAVYYCAKEFISWIYTFDYLDYWGQGTLVTVSS
VL: B1 VL
[2]
  binding: binds
